# In the supplement of paper PMC12595434, “Development of retinoid nuclear receptor pathway antagonists through targeting aldehyde dehydrogenase 1A3” (iScience, 2025):
# The chains behind the UniProt entries cited, without tags or fusion partners. Where a name states a change or a piece, a line headed by the entry shows the natural chain unless it says otherwise.
# UniProt Q96IY1: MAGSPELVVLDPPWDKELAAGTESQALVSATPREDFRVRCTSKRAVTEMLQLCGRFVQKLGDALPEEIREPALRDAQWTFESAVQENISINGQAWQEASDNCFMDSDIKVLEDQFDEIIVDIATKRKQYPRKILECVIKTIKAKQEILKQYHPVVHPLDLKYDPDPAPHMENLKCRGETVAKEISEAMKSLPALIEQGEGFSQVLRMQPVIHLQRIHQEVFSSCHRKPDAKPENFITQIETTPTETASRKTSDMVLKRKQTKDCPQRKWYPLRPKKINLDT
# UniProt Q96MH6: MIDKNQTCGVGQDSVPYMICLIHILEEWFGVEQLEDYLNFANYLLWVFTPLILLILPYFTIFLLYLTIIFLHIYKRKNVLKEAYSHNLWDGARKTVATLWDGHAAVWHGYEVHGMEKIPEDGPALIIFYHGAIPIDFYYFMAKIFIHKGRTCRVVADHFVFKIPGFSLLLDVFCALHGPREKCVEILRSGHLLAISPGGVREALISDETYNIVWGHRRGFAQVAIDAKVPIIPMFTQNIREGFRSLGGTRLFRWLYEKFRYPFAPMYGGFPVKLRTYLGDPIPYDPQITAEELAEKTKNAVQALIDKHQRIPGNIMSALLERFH
# UniProt Q99447: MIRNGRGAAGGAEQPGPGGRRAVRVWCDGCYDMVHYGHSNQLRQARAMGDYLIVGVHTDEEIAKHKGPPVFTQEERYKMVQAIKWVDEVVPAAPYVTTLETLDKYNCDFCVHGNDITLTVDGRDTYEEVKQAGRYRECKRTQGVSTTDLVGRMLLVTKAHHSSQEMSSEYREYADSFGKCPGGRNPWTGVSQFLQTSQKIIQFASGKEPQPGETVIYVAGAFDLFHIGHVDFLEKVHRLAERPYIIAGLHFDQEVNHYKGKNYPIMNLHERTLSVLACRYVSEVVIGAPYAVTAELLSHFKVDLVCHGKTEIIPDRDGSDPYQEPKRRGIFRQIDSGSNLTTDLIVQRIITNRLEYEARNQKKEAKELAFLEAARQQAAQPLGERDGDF
# UniProt Q96SZ6: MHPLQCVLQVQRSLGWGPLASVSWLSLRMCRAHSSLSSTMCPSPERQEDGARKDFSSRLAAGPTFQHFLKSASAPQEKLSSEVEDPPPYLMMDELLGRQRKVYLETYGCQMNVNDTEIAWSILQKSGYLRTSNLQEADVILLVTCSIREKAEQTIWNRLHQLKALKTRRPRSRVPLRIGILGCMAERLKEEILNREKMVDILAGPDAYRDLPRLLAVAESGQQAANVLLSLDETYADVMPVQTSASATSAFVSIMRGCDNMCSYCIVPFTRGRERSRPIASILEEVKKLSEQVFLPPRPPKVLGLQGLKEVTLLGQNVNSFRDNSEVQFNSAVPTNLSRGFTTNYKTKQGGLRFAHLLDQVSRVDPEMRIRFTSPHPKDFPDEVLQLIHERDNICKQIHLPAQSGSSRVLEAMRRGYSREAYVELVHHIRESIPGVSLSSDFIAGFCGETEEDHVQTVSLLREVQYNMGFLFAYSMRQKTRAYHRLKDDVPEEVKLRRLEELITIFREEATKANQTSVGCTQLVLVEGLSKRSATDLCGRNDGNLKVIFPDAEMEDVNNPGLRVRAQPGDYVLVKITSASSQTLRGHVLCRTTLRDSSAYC
# UniProt Q96QC0: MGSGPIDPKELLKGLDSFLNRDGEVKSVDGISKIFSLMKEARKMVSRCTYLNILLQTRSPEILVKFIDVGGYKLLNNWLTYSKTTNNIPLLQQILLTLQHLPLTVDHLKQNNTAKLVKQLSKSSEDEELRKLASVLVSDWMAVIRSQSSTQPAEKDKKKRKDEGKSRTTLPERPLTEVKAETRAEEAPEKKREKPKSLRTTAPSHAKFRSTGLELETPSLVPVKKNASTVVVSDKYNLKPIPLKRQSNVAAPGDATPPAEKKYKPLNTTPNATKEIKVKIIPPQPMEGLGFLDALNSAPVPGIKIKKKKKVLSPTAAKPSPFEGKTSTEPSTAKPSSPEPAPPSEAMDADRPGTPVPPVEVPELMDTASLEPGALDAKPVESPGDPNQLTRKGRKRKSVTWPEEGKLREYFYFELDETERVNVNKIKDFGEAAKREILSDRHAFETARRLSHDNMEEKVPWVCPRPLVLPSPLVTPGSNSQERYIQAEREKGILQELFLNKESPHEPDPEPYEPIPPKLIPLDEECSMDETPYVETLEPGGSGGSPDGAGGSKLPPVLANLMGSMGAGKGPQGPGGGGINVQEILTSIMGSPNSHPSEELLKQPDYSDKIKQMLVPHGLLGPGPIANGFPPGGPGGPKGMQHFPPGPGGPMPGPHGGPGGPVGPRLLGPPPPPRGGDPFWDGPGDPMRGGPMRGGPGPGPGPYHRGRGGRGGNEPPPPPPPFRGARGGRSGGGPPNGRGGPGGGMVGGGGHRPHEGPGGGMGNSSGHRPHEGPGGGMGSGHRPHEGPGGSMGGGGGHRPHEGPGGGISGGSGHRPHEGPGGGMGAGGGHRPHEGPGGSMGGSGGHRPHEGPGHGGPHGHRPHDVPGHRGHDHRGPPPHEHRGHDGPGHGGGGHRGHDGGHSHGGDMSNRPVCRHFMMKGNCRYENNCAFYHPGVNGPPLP
# UniProt Q96EX3: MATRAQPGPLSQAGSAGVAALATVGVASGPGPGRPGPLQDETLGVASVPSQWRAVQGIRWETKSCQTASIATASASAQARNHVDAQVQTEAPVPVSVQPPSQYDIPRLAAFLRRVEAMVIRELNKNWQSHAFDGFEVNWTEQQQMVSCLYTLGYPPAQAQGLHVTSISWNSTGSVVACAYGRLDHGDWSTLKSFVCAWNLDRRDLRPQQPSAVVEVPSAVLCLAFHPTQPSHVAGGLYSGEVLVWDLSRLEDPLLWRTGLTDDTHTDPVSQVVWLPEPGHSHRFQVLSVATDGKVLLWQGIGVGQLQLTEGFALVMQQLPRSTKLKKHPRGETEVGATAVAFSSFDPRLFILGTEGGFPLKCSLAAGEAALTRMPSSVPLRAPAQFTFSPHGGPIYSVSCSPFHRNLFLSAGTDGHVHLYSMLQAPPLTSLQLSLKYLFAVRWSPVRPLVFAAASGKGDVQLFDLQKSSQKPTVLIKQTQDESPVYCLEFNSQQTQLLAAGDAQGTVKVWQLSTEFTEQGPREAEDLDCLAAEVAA
# UniProt Q96H55, whole entry: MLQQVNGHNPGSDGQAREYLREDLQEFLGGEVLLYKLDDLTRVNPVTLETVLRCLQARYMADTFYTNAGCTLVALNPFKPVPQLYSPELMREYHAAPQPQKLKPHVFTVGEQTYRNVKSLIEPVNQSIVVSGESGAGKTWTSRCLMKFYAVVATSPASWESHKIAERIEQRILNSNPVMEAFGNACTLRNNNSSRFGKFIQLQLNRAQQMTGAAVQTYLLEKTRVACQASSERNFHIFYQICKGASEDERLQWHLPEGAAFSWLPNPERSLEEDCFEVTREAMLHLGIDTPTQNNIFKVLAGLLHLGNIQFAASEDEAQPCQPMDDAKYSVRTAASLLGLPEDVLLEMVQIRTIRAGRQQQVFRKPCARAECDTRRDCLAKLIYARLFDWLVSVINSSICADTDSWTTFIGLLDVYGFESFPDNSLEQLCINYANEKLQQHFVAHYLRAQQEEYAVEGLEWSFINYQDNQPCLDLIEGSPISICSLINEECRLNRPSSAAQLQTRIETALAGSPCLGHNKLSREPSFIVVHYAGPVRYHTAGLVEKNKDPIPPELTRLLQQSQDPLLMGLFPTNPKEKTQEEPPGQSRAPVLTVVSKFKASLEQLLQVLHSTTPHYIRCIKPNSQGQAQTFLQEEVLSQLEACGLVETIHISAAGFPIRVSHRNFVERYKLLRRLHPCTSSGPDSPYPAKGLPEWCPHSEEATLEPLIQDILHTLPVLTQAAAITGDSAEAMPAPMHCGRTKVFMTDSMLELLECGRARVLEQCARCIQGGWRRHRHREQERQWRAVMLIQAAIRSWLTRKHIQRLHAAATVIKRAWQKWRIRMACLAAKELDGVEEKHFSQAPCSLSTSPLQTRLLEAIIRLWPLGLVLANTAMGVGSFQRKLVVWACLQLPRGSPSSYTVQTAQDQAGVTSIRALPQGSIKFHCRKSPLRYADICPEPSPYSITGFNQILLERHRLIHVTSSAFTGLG
# UniProt Q96SY0, whole entry: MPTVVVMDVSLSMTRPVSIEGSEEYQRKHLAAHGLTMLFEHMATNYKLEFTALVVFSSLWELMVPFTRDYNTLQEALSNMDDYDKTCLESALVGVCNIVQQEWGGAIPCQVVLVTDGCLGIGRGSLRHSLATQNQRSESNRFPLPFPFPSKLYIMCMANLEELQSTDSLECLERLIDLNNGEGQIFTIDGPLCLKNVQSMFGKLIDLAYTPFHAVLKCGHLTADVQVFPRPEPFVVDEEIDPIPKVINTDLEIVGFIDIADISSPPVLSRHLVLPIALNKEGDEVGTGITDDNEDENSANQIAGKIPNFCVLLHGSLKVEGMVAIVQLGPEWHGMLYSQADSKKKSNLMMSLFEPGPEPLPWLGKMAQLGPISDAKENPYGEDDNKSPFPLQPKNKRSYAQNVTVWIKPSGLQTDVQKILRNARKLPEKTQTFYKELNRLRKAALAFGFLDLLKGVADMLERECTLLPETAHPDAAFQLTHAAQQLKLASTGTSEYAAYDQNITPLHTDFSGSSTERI
# The list shows a part of the results. This is a noisy data set.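 Tm was set to 64 °C where no melting was found, and many curves are irregular.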
# Compound: CCc1cnccc1C(=O)Nc1cc2c(cc1F)NC(=O)CC2
# Test: melting temperature shift (DMSO Tm minus MBE1-treated Tm) in cellular thermal proteome profiling; higher = less thermal stabilization by MBE1 (negative = stabilized by MBE1)
# Details: A375
Target,melting temperature shift (MBE1 concentration: 100 nM),melting temperature shift (MBE1 concentration: 1 uM)
NSL1 (UniProt Q96IY1),-0.361 °C,-0.193 °C
TMEM68 (UniProt Q96MH6),-1.37 °C,0.36 °C
PCYT2 (UniProt Q99447),-0.597 °C,0.342 °C
INPP4A (UniProt Q96PE3),-0.228 °C,0.236 °C
CDK5RAP1 (UniProt Q96SZ6),-1.72 °C,-0.0128 °C
PPP1R10 (UniProt Q96QC0),0.11 °C,0.629 °C
WDR34 (UniProt Q96EX3),1.12 °C,0.574 °C
MYO19 (UniProt Q96H55),0.299 °C,0.177 °C
VWA9 (UniProt Q96SY0),-0.0488 °C,0.653 °C
